According to patent US20090087440A1, “Methods for Treating Cancer” (SCHERING CORPORATION, priority 2001, published 2009):
Some entries share one result that the patent states for a list of compounds.

Tests used:
[1] = system: B16F0 melanoma tumor; test: Therapeutic effect in the B16F0 melanoma tumor model (Example VII); conditions: B16F0 s.c.
[2] = system: C26 tumor; test: Therapeutic effect in the C26 tumor model (Example VI); format: in vivo, BALB/c mice; conditions: C26 s.c.
Description: Control antibody was purified GL113 antibody.

Substance: CpG 1668: TLR-9 ligand in the mouse, sequence TCC-ATG-ACG-TTC-CTG-ATG-CT (SEQ ID NO: 5), MWG Biotech (TCCATGACGTTCCTGATGCT; DNA, all phosphorothioate, methylation of C not given here)
- time within which all mice developed tumors [1]: ≤ 7 days
- time within which all mice developed tumors [2]: ≤ 7 days
